Laboratory results from patent US20100028485A1, “TALAROMYCES EMERSONII ENZYME SYSTEMS” (priority 2006, published 2010).
At least one structure is not confirmed: it was looked up by name or label, or the drawing left a doubt. Some results were stated once for a whole list of compounds, not compound by compound.

What was measured:
Assay type in all cases: biochemical, Talaromyces emersonii
[1] = tested on: EG V; assay: Effects of metal ions, chemical modification reagents, detergents and potential inhibitors on EG V; conditions: 1 mM metal ion; relative to control without metal ion
Description: (§1) Substrate specificity on various polysaccharides and synthetic glycosides was evaluated by 15 measuring activity against a wide variety of carbohydrates (BBG, lichenan, CMC, other polysaccharides and synthetic glycosides) using the normal β-glucanase assay procedure. • Effects Of Metal Ions, Chemical Modification Reagents And Potential Inhibitors A range of monovalent, divalent and heavy metal ions, at final assay concentrations of 1.0 mM, were investigated for their potential effects on the activities of EG V, EG VI and EG VII, by incubating the enzymes with the chemicals and then conducting the normal enzyme assay. Finally, the inhibitor effects of glycosides, such as disaccharides, lactones and flavanoid glycosides on the purified enzymes were examined. Specified concentrations of each glycoside were included in normal assay cocktails and residual activity determined by comparison with controls (no glycoside present).
(§2) Activity was expressed as a % relative to a control (no metal ion present in incubation mixture). In general, heavy metal ions are thought to inactivate enzymes by forming covalent salts with cysteine, histidine or carboxyl groups. […]

[2] = target: EG V, EG VI and EG VII; assay: Effects of metal ions, reagents, phenolics and glycosides stated for all three enzymes
Description: as §1, §2

[3] = tested on: EG VI; assay: Effects of metal ions, chemical modification reagents, detergents and potential inhibitors on EG VI; conditions: substrate, enzyme and detergent incubated simultaneously
Description: as §1, §2

Row | Compound | concentration for 50% inhibition of EG V-VII [2] | other results
1 | [Cu+2] [Cu^2+] | – | decrease in activity of EG V [1]: 26.5-77.4%
2 | O=C1O[C@H](CO)[C@@H](O)[C@H](O)[C@H]1O [Glucono-δ-lactone] | 500 to >750 | –
3 | C[C@H](CCC(=O)O)[C@H]1CC[C@H]2[C@@H]3CC[C@@H]4C[C@H](O)CC[C@]4(C)[C@H]3C[C@H](O)[C@]12C [deoxycholic acid] | – | increase in activity of EG VI [3]: > 2 fold
4 | O=C1O[C@@H]([C@H](O)[C@H](O)CO)[C@@H](O)[C@H]1O [glucoheptono-1,4-lactone] | 500 to >750 | –
